Measured values taken from patent US20250353921A1.
Results are given in words; binding and its absence hold for the method and conditions named. Binding can be weak; no strength is given. Where a sequence is shown, tags or fusion partners need not be part of it.

Target: cynomolgus OX40-ECD-his (cynomolgus)
Assay: SPR Biacore T200 kinetic screen, scFv-Fc captured, antigen at 1 µM

binding: binds
B1: MAB1 scFv-Fc fusion protein (Fc fusion, not shown: a dimerising Fc or GST)
chain: QVTLKESGPALVKPTQTLTLTCSFSGFSLSTSGMGVGWIRQPPGKALEWIAHIWWDDDKYYNTALKTRLTISKDTSKNQVVLTMTNMDPVDTATYYCARIDWDGFAYWGQGTLVTVSSGGGGSGGGGSGGGGSEIVLTQSPATLSLSPGERATLSCRASSSVSYMHWYQQKPGQAPRPWIYATSNRATGIPARFSGSGSGTDYTLTISSLEPEDFAVYYCQQFGAWPWTFGQGTKVEIKGGGG
